Measured values as given in the supplement of paper PMC7666118.
This is one part of the list.

The chains behind the UniProt entries cited, without tags or fusion partners. Where a name states a change or a piece, a line headed by the entry shows the natural chain unless it says otherwise.
UniProt Q9UI08, whole entry: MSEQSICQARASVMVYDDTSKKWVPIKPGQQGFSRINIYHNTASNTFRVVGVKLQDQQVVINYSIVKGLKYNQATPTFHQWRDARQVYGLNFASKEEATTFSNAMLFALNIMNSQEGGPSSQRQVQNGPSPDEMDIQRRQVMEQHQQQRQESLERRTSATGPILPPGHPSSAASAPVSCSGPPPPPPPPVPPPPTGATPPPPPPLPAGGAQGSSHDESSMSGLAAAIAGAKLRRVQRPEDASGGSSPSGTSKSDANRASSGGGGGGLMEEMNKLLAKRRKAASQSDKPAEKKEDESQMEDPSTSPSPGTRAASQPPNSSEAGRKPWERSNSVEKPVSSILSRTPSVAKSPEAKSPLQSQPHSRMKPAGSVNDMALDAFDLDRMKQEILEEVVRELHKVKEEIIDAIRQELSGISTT
UniProt P20042, whole entry: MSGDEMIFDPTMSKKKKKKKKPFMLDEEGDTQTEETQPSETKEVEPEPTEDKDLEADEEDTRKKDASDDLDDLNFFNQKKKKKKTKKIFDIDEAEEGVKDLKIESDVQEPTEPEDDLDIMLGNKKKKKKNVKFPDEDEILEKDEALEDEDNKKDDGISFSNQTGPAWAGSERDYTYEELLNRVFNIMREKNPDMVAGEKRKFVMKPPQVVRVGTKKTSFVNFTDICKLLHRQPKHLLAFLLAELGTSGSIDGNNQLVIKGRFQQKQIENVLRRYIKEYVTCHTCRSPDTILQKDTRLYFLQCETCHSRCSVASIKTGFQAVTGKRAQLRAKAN
UniProt Q9UI10, whole entry: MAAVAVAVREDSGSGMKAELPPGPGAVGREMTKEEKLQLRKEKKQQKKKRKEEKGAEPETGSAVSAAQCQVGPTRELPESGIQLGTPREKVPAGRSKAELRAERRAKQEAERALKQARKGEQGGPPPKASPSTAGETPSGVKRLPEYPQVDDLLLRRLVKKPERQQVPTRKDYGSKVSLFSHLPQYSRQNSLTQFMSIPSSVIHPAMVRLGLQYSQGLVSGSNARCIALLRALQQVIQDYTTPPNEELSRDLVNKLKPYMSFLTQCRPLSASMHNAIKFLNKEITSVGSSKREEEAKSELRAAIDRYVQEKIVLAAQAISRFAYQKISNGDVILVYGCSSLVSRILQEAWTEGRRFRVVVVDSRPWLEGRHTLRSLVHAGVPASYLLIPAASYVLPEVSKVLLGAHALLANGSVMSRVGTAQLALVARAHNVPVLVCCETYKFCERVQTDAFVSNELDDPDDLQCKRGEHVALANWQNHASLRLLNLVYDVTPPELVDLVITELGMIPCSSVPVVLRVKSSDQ
UniProt Q96A65: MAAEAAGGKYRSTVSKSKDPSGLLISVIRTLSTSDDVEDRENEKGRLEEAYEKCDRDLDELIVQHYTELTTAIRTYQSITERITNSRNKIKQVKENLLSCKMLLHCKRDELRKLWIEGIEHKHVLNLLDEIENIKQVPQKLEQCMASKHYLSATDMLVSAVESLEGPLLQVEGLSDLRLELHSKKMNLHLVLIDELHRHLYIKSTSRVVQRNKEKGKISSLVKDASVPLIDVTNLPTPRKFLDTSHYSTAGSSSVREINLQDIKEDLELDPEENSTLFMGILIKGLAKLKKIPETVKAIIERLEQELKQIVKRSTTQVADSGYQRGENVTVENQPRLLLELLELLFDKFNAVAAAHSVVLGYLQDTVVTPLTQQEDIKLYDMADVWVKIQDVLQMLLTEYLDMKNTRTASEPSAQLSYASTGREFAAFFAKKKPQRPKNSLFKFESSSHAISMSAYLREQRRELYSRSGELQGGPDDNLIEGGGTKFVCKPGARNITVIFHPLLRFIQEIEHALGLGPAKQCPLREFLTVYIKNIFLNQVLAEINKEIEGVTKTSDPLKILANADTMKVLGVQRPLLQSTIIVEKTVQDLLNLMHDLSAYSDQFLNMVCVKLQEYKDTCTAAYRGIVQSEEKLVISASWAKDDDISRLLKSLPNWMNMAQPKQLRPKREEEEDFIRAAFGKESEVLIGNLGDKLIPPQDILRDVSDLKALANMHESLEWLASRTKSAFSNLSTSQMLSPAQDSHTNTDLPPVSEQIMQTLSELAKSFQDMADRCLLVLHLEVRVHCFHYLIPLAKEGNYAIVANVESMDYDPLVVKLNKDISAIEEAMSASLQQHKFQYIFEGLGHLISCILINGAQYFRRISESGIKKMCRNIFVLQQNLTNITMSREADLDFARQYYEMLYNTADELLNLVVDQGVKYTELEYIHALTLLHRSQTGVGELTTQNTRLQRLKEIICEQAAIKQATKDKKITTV
UniProt Q6P1R4: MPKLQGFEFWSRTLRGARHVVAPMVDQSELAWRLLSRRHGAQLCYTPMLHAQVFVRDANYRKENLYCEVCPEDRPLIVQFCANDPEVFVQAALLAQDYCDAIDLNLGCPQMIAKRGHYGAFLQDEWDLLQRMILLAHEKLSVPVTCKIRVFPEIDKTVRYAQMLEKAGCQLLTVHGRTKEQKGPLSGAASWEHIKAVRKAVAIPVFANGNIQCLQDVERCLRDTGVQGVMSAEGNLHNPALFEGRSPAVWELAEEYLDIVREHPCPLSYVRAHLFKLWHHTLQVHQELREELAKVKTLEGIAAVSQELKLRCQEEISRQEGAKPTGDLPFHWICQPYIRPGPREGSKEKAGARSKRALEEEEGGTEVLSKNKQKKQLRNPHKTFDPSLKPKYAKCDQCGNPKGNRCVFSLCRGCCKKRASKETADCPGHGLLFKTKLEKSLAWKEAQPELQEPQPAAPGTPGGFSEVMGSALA
UniProt Q08554: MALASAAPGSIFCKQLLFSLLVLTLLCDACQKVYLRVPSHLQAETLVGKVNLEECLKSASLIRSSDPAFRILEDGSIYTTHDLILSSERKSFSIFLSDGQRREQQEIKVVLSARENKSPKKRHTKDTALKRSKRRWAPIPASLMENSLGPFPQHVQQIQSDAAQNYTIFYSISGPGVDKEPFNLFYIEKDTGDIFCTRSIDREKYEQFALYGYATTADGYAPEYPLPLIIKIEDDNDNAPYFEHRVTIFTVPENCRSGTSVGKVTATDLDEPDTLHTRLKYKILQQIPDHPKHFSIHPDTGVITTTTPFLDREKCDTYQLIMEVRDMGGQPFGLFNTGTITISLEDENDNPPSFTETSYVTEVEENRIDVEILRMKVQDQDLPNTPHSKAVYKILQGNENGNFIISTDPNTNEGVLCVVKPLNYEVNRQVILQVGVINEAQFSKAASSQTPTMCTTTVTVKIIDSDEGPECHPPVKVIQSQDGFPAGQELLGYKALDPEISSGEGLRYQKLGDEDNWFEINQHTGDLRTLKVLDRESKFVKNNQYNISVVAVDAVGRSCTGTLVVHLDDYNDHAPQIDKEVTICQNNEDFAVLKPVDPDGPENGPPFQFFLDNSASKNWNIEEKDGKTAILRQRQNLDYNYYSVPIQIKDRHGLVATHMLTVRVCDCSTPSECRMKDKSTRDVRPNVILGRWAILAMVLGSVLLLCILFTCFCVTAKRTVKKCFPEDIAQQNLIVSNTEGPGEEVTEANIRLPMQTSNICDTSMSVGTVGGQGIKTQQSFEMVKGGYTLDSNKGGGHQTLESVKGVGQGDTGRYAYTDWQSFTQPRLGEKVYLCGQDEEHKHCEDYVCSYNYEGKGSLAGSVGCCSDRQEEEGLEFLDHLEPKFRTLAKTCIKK
UniProt O60645: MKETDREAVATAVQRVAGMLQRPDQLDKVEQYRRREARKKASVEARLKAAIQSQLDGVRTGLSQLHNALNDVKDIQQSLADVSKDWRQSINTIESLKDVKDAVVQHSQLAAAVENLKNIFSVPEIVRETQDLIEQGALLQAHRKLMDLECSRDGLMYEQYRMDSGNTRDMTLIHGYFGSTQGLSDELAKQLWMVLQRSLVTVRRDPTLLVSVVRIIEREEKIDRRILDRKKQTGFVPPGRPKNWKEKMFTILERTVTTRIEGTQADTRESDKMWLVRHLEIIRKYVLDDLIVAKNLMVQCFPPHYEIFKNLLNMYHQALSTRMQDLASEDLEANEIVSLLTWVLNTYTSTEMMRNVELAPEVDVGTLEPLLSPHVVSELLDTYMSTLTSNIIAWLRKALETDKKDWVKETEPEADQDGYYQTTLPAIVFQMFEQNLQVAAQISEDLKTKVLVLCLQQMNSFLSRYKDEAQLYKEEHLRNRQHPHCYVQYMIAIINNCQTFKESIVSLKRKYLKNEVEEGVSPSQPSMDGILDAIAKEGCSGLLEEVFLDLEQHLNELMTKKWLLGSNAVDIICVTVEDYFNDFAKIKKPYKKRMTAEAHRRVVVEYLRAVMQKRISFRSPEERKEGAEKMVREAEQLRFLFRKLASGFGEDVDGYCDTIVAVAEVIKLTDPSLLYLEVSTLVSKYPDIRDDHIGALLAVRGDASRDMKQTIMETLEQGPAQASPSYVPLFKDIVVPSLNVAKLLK
UniProt Q15075: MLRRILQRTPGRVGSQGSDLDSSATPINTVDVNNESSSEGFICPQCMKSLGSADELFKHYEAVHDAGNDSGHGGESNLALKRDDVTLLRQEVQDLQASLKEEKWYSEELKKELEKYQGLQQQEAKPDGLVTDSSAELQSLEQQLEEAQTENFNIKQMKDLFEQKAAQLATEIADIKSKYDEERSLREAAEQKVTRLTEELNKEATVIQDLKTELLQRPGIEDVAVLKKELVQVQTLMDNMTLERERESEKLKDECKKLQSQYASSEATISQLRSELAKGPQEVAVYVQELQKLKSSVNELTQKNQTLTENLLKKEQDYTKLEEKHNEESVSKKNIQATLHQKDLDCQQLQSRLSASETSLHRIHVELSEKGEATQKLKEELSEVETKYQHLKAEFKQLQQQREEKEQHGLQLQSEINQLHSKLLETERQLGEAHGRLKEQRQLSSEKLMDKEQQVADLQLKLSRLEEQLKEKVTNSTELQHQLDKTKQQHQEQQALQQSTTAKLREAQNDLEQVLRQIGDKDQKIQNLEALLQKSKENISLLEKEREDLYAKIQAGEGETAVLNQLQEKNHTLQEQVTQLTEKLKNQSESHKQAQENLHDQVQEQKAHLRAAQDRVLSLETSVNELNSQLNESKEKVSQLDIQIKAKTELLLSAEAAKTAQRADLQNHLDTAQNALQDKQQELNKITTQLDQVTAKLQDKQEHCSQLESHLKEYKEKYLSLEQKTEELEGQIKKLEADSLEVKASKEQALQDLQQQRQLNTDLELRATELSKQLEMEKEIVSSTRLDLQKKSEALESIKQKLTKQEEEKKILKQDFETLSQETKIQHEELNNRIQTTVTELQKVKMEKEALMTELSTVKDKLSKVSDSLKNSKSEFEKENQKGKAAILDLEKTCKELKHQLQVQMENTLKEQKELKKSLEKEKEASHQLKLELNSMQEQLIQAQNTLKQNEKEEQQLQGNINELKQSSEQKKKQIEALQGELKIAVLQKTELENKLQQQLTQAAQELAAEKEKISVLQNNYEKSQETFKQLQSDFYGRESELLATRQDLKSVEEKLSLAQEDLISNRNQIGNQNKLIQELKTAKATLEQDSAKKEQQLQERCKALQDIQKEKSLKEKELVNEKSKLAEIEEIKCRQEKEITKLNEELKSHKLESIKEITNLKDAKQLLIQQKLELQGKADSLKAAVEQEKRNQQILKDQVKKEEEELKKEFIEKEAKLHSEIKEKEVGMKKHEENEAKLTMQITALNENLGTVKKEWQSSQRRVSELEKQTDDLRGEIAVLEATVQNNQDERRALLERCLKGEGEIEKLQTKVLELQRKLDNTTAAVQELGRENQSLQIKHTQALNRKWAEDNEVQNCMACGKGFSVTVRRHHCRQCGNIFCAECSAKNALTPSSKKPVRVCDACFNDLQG
UniProt Q06265, whole entry: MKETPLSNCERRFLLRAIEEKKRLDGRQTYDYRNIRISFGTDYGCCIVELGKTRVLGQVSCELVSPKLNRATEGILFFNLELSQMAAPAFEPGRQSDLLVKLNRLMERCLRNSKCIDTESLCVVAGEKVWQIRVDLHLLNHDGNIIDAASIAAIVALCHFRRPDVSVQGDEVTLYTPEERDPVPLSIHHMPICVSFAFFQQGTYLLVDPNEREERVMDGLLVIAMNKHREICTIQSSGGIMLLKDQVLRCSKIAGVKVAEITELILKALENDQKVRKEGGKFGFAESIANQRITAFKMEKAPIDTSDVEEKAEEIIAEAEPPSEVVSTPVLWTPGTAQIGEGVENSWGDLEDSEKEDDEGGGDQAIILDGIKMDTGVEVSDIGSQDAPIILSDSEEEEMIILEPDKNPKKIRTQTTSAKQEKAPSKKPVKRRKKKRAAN
UniProt Q9UHY7: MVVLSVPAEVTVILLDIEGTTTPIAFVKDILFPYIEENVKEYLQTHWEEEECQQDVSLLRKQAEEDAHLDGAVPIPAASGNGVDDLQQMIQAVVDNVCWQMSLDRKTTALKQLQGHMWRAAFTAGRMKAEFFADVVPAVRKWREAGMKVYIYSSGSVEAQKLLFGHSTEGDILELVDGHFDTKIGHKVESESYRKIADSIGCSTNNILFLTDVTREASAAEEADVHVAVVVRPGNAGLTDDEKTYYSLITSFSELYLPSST
UniProt O43768: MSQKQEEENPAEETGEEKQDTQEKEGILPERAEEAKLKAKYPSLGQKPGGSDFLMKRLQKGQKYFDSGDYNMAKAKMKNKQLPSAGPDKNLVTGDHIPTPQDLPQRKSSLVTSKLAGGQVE

compound: COc1ccc(Cn2ccc3cc(C)c(C(=O)NO)cc32)cc1; assay: dose-dependent thermal stabilisation call (2D-TPP, DLPTP, 10% FDR) (binary (1 = stabilised)); higher = stabilised by the compound; conditions: system: HL-60 intact cells; concentration range 0.04-10 µM
Description: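 2D thermal proteome profiling in intact HL-60 cells treated with BRD-3811 (0, 0.04, 0.29, 2, 10 uM) for 90 min at 37 C, then heated 3 min at one of 12 temperatures (42-63.9 C). Soluble protein was quantified by TMT10 MS. The value is the DLPTP call of the paper: dose-dependent thermal stabilisation over all temperatures at 10% FDR (F-test of a dose-response against a flat model); one experiment, one call per tested protein.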

| Target | dose-dependent thermal stabilisation call |
| --- | --- |
| EHD1 (UniProt Q9H4M9) | inactive: 0 |
| EVL (UniProt Q9UI08) | inactive: 0 |
| EPRS (UniProt P07814) | inactive: 0 |
| EIF2S2 (UniProt P20042) | inactive: 0 |
| EIF2B4 (UniProt Q9UI10) | inactive: 0 |
| EIF3B (UniProt P55884) | inactive: 0 |
| ERO1LB (UniProt Q86YB8) | inactive: 0 |
| FAM103A1 (UniProt Q9BTL3) | inactive: 0 |
| FAHD1 (UniProt Q6P587) | inactive: 0 |
| FAM114A2 (UniProt Q9NRY5) | inactive: 0 |
| EIF3C (UniProt Q99613) | inactive: 0 |
| EXOC4 (UniProt Q96A65) | inactive: 0 |
| DUS1L (UniProt Q6P1R4) | inactive: 0 |
| ECHS1 (UniProt P30084) | inactive: 0 |
| EXOSC6 (UniProt Q5RKV6) | inactive: 0 |
| EPC1 (UniProt Q9H2F5) | inactive: 0 |
| EIF4B (UniProt P23588) | inactive: 0 |
| DSC1 (UniProt Q08554) | inactive: 0 |
| DR1 (UniProt Q01658) | inactive: 0 |
| DSCR3 (UniProt O14972) | inactive: 0 |

| Target | dose-dependent thermal stabilisation call |
| --- | --- |
| EIF2C1 (UniProt Q9UL18) | inactive: 0 |
| EIF1B (UniProt O60739) | inactive: 0 |
| EIF4H (UniProt Q15056) | inactive: 0 |
| EIF2AK4 (UniProt Q9P2K8) | inactive: 0 |
| ERCC1 (UniProt P07992) | inactive: 0 |
| EXOSC3 (UniProt Q9NQT5) | inactive: 0 |
| DYNC2LI1 (UniProt Q8TCX1) | inactive: 0 |
| ELF1 (UniProt P32519) | inactive: 0 |
| EXOC3 (UniProt O60645) | inactive: 0 |
| ENO3 (UniProt P13929) | inactive: 0 |
| EEA1 (UniProt Q15075) | inactive: 0 |
| FAH (UniProt P16930) | inactive: 0 |
| EXT2 (UniProt Q93063) | inactive: 0 |
| DRG2 (UniProt P55039) | inactive: 0 |
| EEF2K (UniProt O00418) | inactive: 0 |
| FAM136A (UniProt Q96C01) | inactive: 0 |
| EXOSC9 (UniProt Q06265) | inactive: 0 |
| ENOPH1 (UniProt Q9UHY7) | inactive: 0 |
| EDC4 (UniProt Q6P2E9) | inactive: 0 |
| ENSA (UniProt O43768) | inactive: 0 |
